For one compound, IC50 results are on record in PMC9964319, “Half-Sandwich Rhodium Complexes with Releasable N-Donor Monodentate Ligands: Solution Chemical Properties and the Possibility for Acidosis Activation” (Pharmaceutics, 2023).

The IC50 is the point on the concentration scale where inhibition reaches its midpoint.

In test [1] the test system is Colo205 human colon adenocarcinoma cell line (doxorubicin-sensitive). The test can be described thus: MTT assay, cytotoxicity at pH 6 and 7. The class given is cell-based. Background: Formazan colour is commonly taken as a measure of viable cells.
Test [2] deals with Colo320 human colon adenocarcinoma cell line (doxorubicin-resistant). Put plainly: MTT assay, cytotoxicity at pH 6 and 7. The class given is cell-based.

Take `Clc1ccc(COC(Cn2ccnc2)c2ccc(Cl)cc2Cl)cc1` (stereo not shown) [econ, econazole, reference compound]: the IC50 in test [1] (COLO 205, pH 6, 72 h incubation) was determined as 23.1 ± 2.1 µM; in test [1] (COLO 205, pH 7, 72 h incubation), 18.2 ± 0.7 µM; in test [2] (COLO 320, pH 6, 72 h incubation), 10.3 ± 1.5 µM; in test [2] (COLO 320, pH 7, 72 h incubation), 11.4 ± 0.4 µM.
